Experimental data taken from patent US20160090556A1, “PRODUCTS COMPRISING MALODOR REDUCTION MATERIALS” (The Procter & Gamble Company, priority 2014, published 2016).
Some compounds share one wording; it may come from a single statement.

assay: Melamine formaldehyde PMC Headspace Response Ratio; settings: not given

SMILES	Melamine formaldehyde PMC Headspace Response Ratio (Comment Code I)
CC(C)(O)Cc1ccccc1 [Material 649]	I (Melamine formaldehyde PMC Headspace Response Ratio greater than or equal to 10)
Cc1cccc(CCO)c1 [Material 928]	I (Melamine formaldehyde PMC Headspace Response Ratio greater than or equal to 10)
OCCOc1ccccc1 [Material 834]	I (Melamine formaldehyde PMC Headspace Response Ratio greater than or equal to 10)
Cc1ncsc1CCO [Material 1042]	I (Melamine formaldehyde PMC Headspace Response Ratio greater than or equal to 10)
COc1cc(OC)c(C=O)c(OC)c1 [Material 736]	I (Melamine formaldehyde PMC Headspace Response Ratio greater than or equal to 10)
CCCCCCCC#N [Material 578]	I (Melamine formaldehyde PMC Headspace Response Ratio greater than or equal to 10)
C=C/C(C)=C/CC=C(C)C [Material 1077]	I (Melamine formaldehyde PMC Headspace Response Ratio greater than or equal to 10)

same assay, conditions: class code letter within Comment Code

SMILES	Melamine formaldehyde PMC Headspace Response Ratio (Comment Code I)
CCC1=C(O)C(=O)C(C)O1 (stereo not drawn) [Material 259]	I (Melamine formaldehyde PMC Headspace Response Ratio greater than or equal to 10)
Cc1ccc2c(c1)OCC(=O)CO2 [Material 17]	I (Melamine formaldehyde PMC Headspace Response Ratio greater than or equal to 10)
OCC=Cc1ccccc1 [Material 555]	I (Melamine formaldehyde PMC Headspace Response Ratio greater than or equal to 10)
c1ccc2occc2c1 [Material 493]	I (Melamine formaldehyde PMC Headspace Response Ratio greater than or equal to 10)
CC(O)C(C)Cc1ccccc1 (stereo not drawn) [Material 82]	I (Melamine formaldehyde PMC Headspace Response Ratio greater than or equal to 10)
CCCCCCCCC=O [Material 50]	I (Melamine formaldehyde PMC Headspace Response Ratio greater than or equal to 10)
CCCCCCC(=O)CC [Material 394]	I (Melamine formaldehyde PMC Headspace Response Ratio greater than or equal to 10)

same assay, conditions: code I of the Comment Code column, Table 1

SMILES	Comment Code: Melamine formaldehyde PMC Headspace Response Ratio
COCc1ccc(O)c(OC)c1 [Material 1113]	I (Melamine formaldehyde PMC Headspace Response Ratio greater than or equal to 10)

same assay, conditions: code letter I

SMILES	Comment Code: Melamine formaldehyde PMC Headspace Response Ratio
COC(=O)C=C1CCCC1 [Material 116]	I (Melamine formaldehyde PMC Headspace Response Ratio greater than or equal to 10)
CC1CCC(=O)C1=O (stereo not drawn) [Material 810]	I (Melamine formaldehyde PMC Headspace Response Ratio greater than or equal to 10)
COc1ccc(C(C)=O)cc1 [Material 761]	I (Melamine formaldehyde PMC Headspace Response Ratio greater than or equal to 10)
CCC(C)C(=O)OC (stereo not drawn) [Material 904]	I (Melamine formaldehyde PMC Headspace Response Ratio greater than or equal to 10)
CCC=CCCO [Material 817]	I (Melamine formaldehyde PMC Headspace Response Ratio greater than or equal to 10)
COc1cc(C)ccc1O [Material 492]	I (Melamine formaldehyde PMC Headspace Response Ratio greater than or equal to 10)
CC(=O)C(C)O (stereo not drawn) [Material 760]	I (Melamine formaldehyde PMC Headspace Response Ratio greater than or equal to 10)
CCCCCCC=O [Material 284]	I (Melamine formaldehyde PMC Headspace Response Ratio greater than or equal to 10)
O=C/C=C/c1ccccc1 [Material 554]	I (Melamine formaldehyde PMC Headspace Response Ratio greater than or equal to 10)
OCc1ccccc1 [Material 652]	I (Melamine formaldehyde PMC Headspace Response Ratio greater than or equal to 10)
CCC/C=C\CO [Material 547]	I (Melamine formaldehyde PMC Headspace Response Ratio greater than or equal to 10)
CC(O)CCC1CCCCC1 (stereo not drawn) [Material 699]	I (Melamine formaldehyde PMC Headspace Response Ratio greater than or equal to 10)
CCC(=O)CC(C)CC (stereo not drawn) [Material 784]	I (Melamine formaldehyde PMC Headspace Response Ratio greater than or equal to 10)
CCOC(=O)OC1CCCCC1C(C)(C)C (stereo not drawn) [Material 365]	I (Melamine formaldehyde PMC Headspace Response Ratio greater than or equal to 10)
CC(C)=CCCC(C)CC#N (stereo not drawn) [Material 509]	I (Melamine formaldehyde PMC Headspace Response Ratio greater than or equal to 10)
COc1ccc(C=O)cc1OC [Material 1118]	I (Melamine formaldehyde PMC Headspace Response Ratio greater than or equal to 10)
CC(=O)CCc1ccc(O)cc1 [Material 1002]	I (Melamine formaldehyde PMC Headspace Response Ratio greater than or equal to 10)
CCCCCCOC(=O)CC [Material 264]	I (Melamine formaldehyde PMC Headspace Response Ratio greater than or equal to 10)
O=C1CCc2ccccc2O1 [Material 442]	I (Melamine formaldehyde PMC Headspace Response Ratio greater than or equal to 10)
C/C=C\c1ccc(O)c(OC)c1 [Material 528]	I (Melamine formaldehyde PMC Headspace Response Ratio greater than or equal to 10)
C=Cc1ccc(O)cc1 [Material 789]	I (Melamine formaldehyde PMC Headspace Response Ratio greater than or equal to 10)
CCCCCC1CCCC1O (stereo not drawn) [Material 836]	I (Melamine formaldehyde PMC Headspace Response Ratio greater than or equal to 10)
O=C1CCC2(CCCCC2)O1 [Material 1039]	I (Melamine formaldehyde PMC Headspace Response Ratio greater than or equal to 10)
COC(C)(C)CCO [Material 812]	I (Melamine formaldehyde PMC Headspace Response Ratio greater than or equal to 10)
CCCCCCCO [Material 282]	I (Melamine formaldehyde PMC Headspace Response Ratio greater than or equal to 10)
CC/C=C\CCOC(=O)C1CC1 [Material 84]	I (Melamine formaldehyde PMC Headspace Response Ratio greater than or equal to 10)
CCCC=CCO [Material 851]	I (Melamine formaldehyde PMC Headspace Response Ratio greater than or equal to 10)
CCC/C=C/CO [Material 1069]	I (Melamine formaldehyde PMC Headspace Response Ratio greater than or equal to 10)
N#CC=Cc1ccccc1 [Material 549]	I (Melamine formaldehyde PMC Headspace Response Ratio greater than or equal to 10)
CC/C=C\CCO [Material 542]	I (Melamine formaldehyde PMC Headspace Response Ratio greater than or equal to 10)
